# According to PubChem BioAssay AID588497 (NMMLSC, 2011):
# Among all 360,000 compounds or so, about 780 (0.22%) were called active. The shares of active, inactive and inconclusive entries below differ from those in the screen. Rule as the data show it: active = inhibition above about 35% (passing the limit was not always enough); inconclusive = no clear call, values can overlap the other calls.
# Tested on: Botulinum neurotoxin type F light chain protease (Clostridium botulinum)
# Experiment: BoNT/F light chain protease inhibitors, primary screen, biochemical, flow cytometry, MLPCN library (AID 588497); also: plate controls were buffer without enzyme for full effect and enzyme alone for no effect
# Details: Multiplex microsphere protease cleavage assay, at 10 µM, active compounds read high
row,SMILES,inhibition
1,Nc1ncncc1-c1ccc2ccccc2c1,inconclusive: -51.9%
2,CC1CCN(c2ccccc2NC(=S)NC(=O)C(C)(C)C)CC1,inactive: -1%
3,C=CC[C@H]1C(C(=O)OCC)=CC[C@@H](c2ccccc2)N1S(=O)(=O)c1ccc(C)cc1,inactive: -9.3%
4,CCCC(=O)c1cc(CP(=O)(OCC)OCC)oc1C,inconclusive: -4.3%
5,C/C(=N\NC(=O)c1ccc(F)cc1)c1ccc(N2CCOCC2)cc1,inactive: 3.1%
6,CCN(CC)c1ccc(/C=C2\C(=O)c3ccc(C(=O)O)cc3C2=O)cc1,active: 63.8%
7,COC(=O)c1cn(C(=O)c2ccc(OC)c(OC)c2)c2ccccc12,inconclusive: -28.5%
8,COC(=O)c1cc2nc(-c3ccccc3)cc(C)n2n1,inconclusive: 13.5%
9,CC(C)C1C(=O)CC(c2ccccc2)NC1c1ccccc1 (centres undefined),inconclusive: 19.1%
10,Cc1cc(-c2ccccc2)nc(SCc2ccc(C(=O)O)o2)n1,inconclusive: -56.8%
11,O=C1NCCN1CCNc1nc(NCC2CC2)nc2cc(-c3ccccc3)sc12,inactive: -3.3%
12,Cc1ccccc1OCC(=O)NCCCNC(=O)c1ccco1,inactive: 5.1%
13,O=C(NCCN1CCN(c2ccccc2)CC1)Nc1cccc(Cl)c1,inactive: -1.7%
14,COc1ccc(-c2noc(-c3ccccc3C(=O)Nc3cccc(OC)c3)n2)cc1,inconclusive: 0.8%
15,O=C(Nc1ccccc1F)C1COc2ccccc2O1 (centres undefined),inconclusive: -31.6%
16,CC(C)(C)C(=O)Nc1ccc(Oc2ccc3c(c2)C(=O)N(c2ccc(O)cc2)C3=O)cc1,inconclusive: 3.6%
17,C/C=C/c1ccc(OCCCCN2C(=O)NC(C)(C)C2=O)c(OC)c1,inactive: -7%
18,O=C(O)c1ccc(NS(=O)(=O)c2ccc(C(=O)Nc3ccccc3)cc2)cc1,inactive: -4.5%
19,COC(=O)c1cc(-c2ccc(S(=O)(=O)N3CCCC3)cc2)c(C(F)(F)F)s1,inconclusive: 23.9%
20,CN(C)c1ccc(NC(=O)COC(=O)CCC(=O)c2ccc(F)cc2)cc1,inactive: -6.3%
21,COc1cc(Br)c(CNCCc2ccc3c(c2)OCO3)cc1OC,inconclusive: -48.9%
22,COc1ccc(N2CCN(C(=S)Nc3ccccc3OC)CC2)cc1,inconclusive: -18.9%
23,[O-][n+]1cccc(C(O)c2ccccc2)c1 (centres undefined),inconclusive: -20.8%
24,CNCc1sccc1C,inactive: 0.2%

row,SMILES,inhibition
1,O=C(Nc1cccc2ccccc12)c1ccccc1,inconclusive: 10.7%
2,Cc1ccc(/C=C/C(=O)OCC(=O)N(CC(C)C)c2c(N)n(Cc3ccccc3)c(=O)[nH]c2=O)o1,inconclusive: -5.4%
3,O=C1c2ccccc2C(=O)N1CCC(=O)N1CCc2ccccc21,inactive: 2.8%
4,Cc1ccc2c(COC(=O)c3ccc(C)c(C)c3)cc(=O)oc2c1,inactive: 15.4%
5,COc1ccc(N/C=C2\C(=O)c3c(sc(C)c3C)N(C)S2(=O)=O)cc1,inconclusive: 39.3%
6,OCC1(CCCc2ccccc2)CCN(C2CCC2)CC1,inconclusive: -2%
7,CN(C)CCP(=O)(c1ccccc1)c1ccccc1,inactive: -12.8%
8,CCOc1ccc(C2=NNC(c3cccs3)=Nc3ccc(OC)cc32)cc1,inactive: -4.3%
9,CC1CCN(C(=S)SCc2nc(N)nc(Nc3ccccc3)n2)CC1,inconclusive: -1.7%
10,CC(=O)N1CCN(c2ncnc3ccccc23)CC1,inconclusive: -4.4%
11,CSc1nccc(NC(=O)c2ccc(C(C)(C)C)cc2)n1,inconclusive: -42.6%
12,CCOc1ccc(S(=O)(=O)n2cc(-c3ccc(F)cc3)c(N)n2)cc1,inactive: 0.3%
13,C=CCn1c(SCC(=O)NC2CC2)nnc1-c1cccs1,inactive: -7.2%
14,CCOC(=O)c1cc(C)[nH]c(=S)c1C#N,inconclusive: -6.1%
15,COC(=O)[C@H](Cc1ccccc1)NC(=O)NCc1ccc(C)cc1,inconclusive: -77.6%
16,O=c1c2c(nc3c(-c4ccccc4)c[nH]n13)CCC2,inactive: -0.2%
17,Cc1[nH]c2c(ccc3cccnc32)c1C,inconclusive: -40.4%
18,COCCCNC(=O)c1cn(CCOC)c(=O)c2c1c1ccccc1n2C,inconclusive: 7.4%
19,Cc1ccc(NC(=O)CC(C)S(=O)(=O)c2ccc3c(c2)NC(=O)CO3)c(Cl)c1 (centres undefined),inactive: 1.3%
20,Cc1[nH]n(-c2ccccc2)c(=O)c1C(=O)c1ccccc1,inconclusive: 28.6%
21,CSc1n[nH]c(=O)n1-c1cccc(Cl)c1,inconclusive: 36.8%
22,O=C(CNS(=O)(=O)c1ccc(Br)cc1)N1CCN(c2ccc(F)cc2)CC1,inconclusive: -28.6%
23,Cc1onc(-c2ccccc2)c1-c1csc(COc2ccccc2)n1,inconclusive: 1.9%
24,COCCN(C(=O)CSc1nnc(-c2ccc(F)cc2)n1N)c1c(N)n(CC(C)C)c(=O)[nH]c1=O,inactive: 2.1%

# A section taken from the entries so far:
row,SMILES,inhibition
1,O=C(Nc1cccc2ccccc12)c1ccccc1,inconclusive: 10.7%
2,Cc1ccc(/C=C/C(=O)OCC(=O)N(CC(C)C)c2c(N)n(Cc3ccccc3)c(=O)[nH]c2=O)o1,inconclusive: -5.4%
3,O=C1c2ccccc2C(=O)N1CCC(=O)N1CCc2ccccc21,inactive: 2.8%
4,Cc1ccc2c(COC(=O)c3ccc(C)c(C)c3)cc(=O)oc2c1,inactive: 15.4%
5,COc1ccc(N/C=C2\C(=O)c3c(sc(C)c3C)N(C)S2(=O)=O)cc1,inconclusive: 39.3%

# (listing goes on)

row,SMILES,inhibition
1,O=C(NCCc1nc(-c2ccccc2Cl)no1)C1CCCCC1,inactive: -0.4%
2,O=C(COc1cc(O)c2c(=O)cc(-c3ccccc3)oc2c1)c1cccc([N+](=O)[O-])c1,inconclusive: -41.3%
3,COc1ccccc1C(=O)NCCn1ccc2ccccc21,active: 35.6%
4,Cc1ccc(S(=O)(=O)Nc2c(O)ccc3ccccc23)cc1,inconclusive: -60.4%
5,COC(=O)c1ccc(CSc2nnnn2C)o1,inactive: 3.6%
6,COc1ccc(-n2ncc3c(=O)n(CC(C)=O)cnc32)cc1,inconclusive: -78.8%
7,O=C(Nc1ncc(Cc2ccccc2)s1)C1COc2ccccc2O1 (centres undefined),inconclusive: -273%
8,C[C@H](NC(=O)OC(C)(C)C)C(=O)NCC1CCC(C(=O)N[C@@H](Cc2ccccc2)C(=O)O)CC1 (some centres undefined),inconclusive: -3.6%
9,Cc1ccccc1NC(=O)CCN1CCN(CCO)CC1,inconclusive: 14.8%
10,COc1ccc(CN(C)CC2CCCN(CCc3ccc(F)cc3)C2)cc1OC (centres undefined),inconclusive: 24.4%
11,Cn1c(=N)n(CC(=O)c2ccccc2)c2ccccc21,inconclusive: -34.8%
12,COc1ccc(CCCC(=O)NCCc2ccccc2)c(C)c1,inactive: 24.3%
13,CCOc1ccc(N=C2C(=O)Nc3ccc(C)c(Br)c32)cc1,inconclusive: 2.2%
14,CCN(CC)C(=O)c1ccc(S(=O)(=O)c2ccccc2)cc1,active: 43.1%
15,Nc1ccc(NC(=O)Nc2ccc(N)cc2)cc1,inconclusive: -72%
16,COc1cc2c(cc1OC)CN(Cc1ccc(C)cc1)CC2,inconclusive: -24.2%
17,CCc1ccc2nc(Nc3ncc(C(C)=O)c(C)n3)nc(C)c2c1,inconclusive: 82.8%
18,CCN(CC)C(=O)Cn1cc(C(=O)C(=O)N2CCN(c3ccc(OC)cc3)CC2)c2ccccc21,inactive: 2.4%
19,O=C(Nc1cccc2ccccc12)NC(Cc1ccccc1)C(=O)O (centres undefined),inactive: 2.8%
20,N#Cc1ccc(OCc2noc(-c3ccsc3)n2)cc1,inconclusive: 14.6%
21,COc1ccc(/C=C(\NC(=O)c2ccco2)C(=O)NC(Cc2ccccc2)C(=O)O)cc1 (centres undefined),inactive: 4.5%
22,CC(C)CCN(C(=O)Nc1ccccc1)C(C)c1cccs1 (centres undefined),inactive: -5.2%
23,O=C(Nc1ccc(Cl)cc1)Nn1cnnc1,inconclusive: -26.5%
24,COc1cc(/C=N/Nc2ccc(C(=O)O)cc2)cc(OC)c1OC,inactive: 6.7%

row,SMILES,inhibition
1,CCC(c1nnnn1C1CCCCC1)N1CCN(C2CCCC2)CC1 (centres undefined),inconclusive: -9.7%
2,CCN(Cc1ccccc1)C(=O)C1CCN(Cc2ccc(SC)cc2)CC1,inactive: 2.9%
3,COc1cc(-c2ccccc2)nc2ccccc12,inconclusive: -24.7%
4,CCC(NCc1cccnc1)c1ccc(OC)c(OC)c1 (centres undefined),inconclusive: 11.5%
5,O=C(NCCN1CCN(Cc2ccccc2)CC1)Nc1cc(Cl)cc(Cl)c1,inconclusive: -132%
6,CN(C)S(=O)(=O)c1cccc(C(=O)NCCNC(=O)c2cccc(S(=O)(=O)N(C)C)c2)c1,inconclusive: -16.8%
7,COC(=O)NC(NS(=O)(=O)c1ccccc1)(C(=O)OC)C(F)(F)F (centres undefined),inconclusive: -3.8%
8,Cc1ccc(-c2nnn(CC(=O)N(CC3CCCO3)C(C(=O)NC(C)(C)C)c3ccc(F)cc3)n2)o1 (centres undefined),inactive: -1.7%
9,Cc1cc(=O)n2[nH]c(SCc3ccc(Cl)cc3)nc2n1,inconclusive: -84.7%
10,CCCc1cc(=O)[nH]c(SCC(=O)N(C)CC(=O)Nc2ccc(C)cc2)n1,inactive: -2.2%
11,CN(Cc1ccccc1)C1(CNC(=O)CCC(F)(F)F)Cc2ccccc2C1,inconclusive: -22.1%
12,CC1CCCC(NC(=O)CCn2c(=O)oc3ccccc32)C1C (centres undefined),inactive: 0.2%
13,OC1(c2ccccc2)Cc2cccc[n+]2C1c1ccccc1 (centres undefined),inconclusive: -32.9%
14,COc1ccc(-c2cc3nc(C)cc(N)n3n2)cc1,inactive: 13.3%
15,COc1cc(CNc2ncnc3c2[nH]c2ccc(C)cc23)cc(OC)c1,inconclusive: -4.6%
16,Cc1oc(C(C)(C)C)cc1C(=O)N1CCN(c2ncccc2C(F)(F)F)CC1,inconclusive: -93.1%
17,O=C(CN1CCN(S(=O)(=O)c2cccc(Br)c2)CC1)N1CCCCC1,inactive: -1.5%
18,Cc1cc(NC(=O)COC(=O)c2nccnc2N)n(-c2ccccc2)n1,inconclusive: 16.7%
19,O=C1OC2(O)C3C4C=CC(C4)C3C(=O)N2c2ccccc21 (centres undefined),inconclusive: -29.4%
20,COc1c(C(=O)NNC(=O)c2ccccc2)csc1Br,inconclusive: 112%
21,CCS(=O)(=O)N1CCC(NC(=O)C(Cc2cc(OC)ccc2OC)NC(C)=O)CC1 (centres undefined),inconclusive: 21.7%
22,O=C(Nc1ccc(Cl)c(Cl)c1)Nc1ccccc1O,inconclusive: -5.2%
